Some of the results follow.
compound: Cc1cc(ccc1-c1ccccc1)C(=O)N1CCCN(CC1)C(=O)CCl [compound 10]; assay: probe-labelled cysteine peptide fold change vs DMSO (competition) (log2 fold change); higher = less target engagement (more negative = stronger competition); settings: 10 µM; THP-1; incubation time: 4 h
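Note: competitive profiling in live THP-1 cells: cysteine peptides tagged with an iodoacetamide desthiobiotin (IA-DTB) probe, intensity after compound treatment relative to DMSO-treated cells.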

The chains behind the UniProt entries cited, without tags or fusion partners. Where a name states a change or a piece, a line headed by the entry shows the natural chain unless it says otherwise.
UniProt O75592: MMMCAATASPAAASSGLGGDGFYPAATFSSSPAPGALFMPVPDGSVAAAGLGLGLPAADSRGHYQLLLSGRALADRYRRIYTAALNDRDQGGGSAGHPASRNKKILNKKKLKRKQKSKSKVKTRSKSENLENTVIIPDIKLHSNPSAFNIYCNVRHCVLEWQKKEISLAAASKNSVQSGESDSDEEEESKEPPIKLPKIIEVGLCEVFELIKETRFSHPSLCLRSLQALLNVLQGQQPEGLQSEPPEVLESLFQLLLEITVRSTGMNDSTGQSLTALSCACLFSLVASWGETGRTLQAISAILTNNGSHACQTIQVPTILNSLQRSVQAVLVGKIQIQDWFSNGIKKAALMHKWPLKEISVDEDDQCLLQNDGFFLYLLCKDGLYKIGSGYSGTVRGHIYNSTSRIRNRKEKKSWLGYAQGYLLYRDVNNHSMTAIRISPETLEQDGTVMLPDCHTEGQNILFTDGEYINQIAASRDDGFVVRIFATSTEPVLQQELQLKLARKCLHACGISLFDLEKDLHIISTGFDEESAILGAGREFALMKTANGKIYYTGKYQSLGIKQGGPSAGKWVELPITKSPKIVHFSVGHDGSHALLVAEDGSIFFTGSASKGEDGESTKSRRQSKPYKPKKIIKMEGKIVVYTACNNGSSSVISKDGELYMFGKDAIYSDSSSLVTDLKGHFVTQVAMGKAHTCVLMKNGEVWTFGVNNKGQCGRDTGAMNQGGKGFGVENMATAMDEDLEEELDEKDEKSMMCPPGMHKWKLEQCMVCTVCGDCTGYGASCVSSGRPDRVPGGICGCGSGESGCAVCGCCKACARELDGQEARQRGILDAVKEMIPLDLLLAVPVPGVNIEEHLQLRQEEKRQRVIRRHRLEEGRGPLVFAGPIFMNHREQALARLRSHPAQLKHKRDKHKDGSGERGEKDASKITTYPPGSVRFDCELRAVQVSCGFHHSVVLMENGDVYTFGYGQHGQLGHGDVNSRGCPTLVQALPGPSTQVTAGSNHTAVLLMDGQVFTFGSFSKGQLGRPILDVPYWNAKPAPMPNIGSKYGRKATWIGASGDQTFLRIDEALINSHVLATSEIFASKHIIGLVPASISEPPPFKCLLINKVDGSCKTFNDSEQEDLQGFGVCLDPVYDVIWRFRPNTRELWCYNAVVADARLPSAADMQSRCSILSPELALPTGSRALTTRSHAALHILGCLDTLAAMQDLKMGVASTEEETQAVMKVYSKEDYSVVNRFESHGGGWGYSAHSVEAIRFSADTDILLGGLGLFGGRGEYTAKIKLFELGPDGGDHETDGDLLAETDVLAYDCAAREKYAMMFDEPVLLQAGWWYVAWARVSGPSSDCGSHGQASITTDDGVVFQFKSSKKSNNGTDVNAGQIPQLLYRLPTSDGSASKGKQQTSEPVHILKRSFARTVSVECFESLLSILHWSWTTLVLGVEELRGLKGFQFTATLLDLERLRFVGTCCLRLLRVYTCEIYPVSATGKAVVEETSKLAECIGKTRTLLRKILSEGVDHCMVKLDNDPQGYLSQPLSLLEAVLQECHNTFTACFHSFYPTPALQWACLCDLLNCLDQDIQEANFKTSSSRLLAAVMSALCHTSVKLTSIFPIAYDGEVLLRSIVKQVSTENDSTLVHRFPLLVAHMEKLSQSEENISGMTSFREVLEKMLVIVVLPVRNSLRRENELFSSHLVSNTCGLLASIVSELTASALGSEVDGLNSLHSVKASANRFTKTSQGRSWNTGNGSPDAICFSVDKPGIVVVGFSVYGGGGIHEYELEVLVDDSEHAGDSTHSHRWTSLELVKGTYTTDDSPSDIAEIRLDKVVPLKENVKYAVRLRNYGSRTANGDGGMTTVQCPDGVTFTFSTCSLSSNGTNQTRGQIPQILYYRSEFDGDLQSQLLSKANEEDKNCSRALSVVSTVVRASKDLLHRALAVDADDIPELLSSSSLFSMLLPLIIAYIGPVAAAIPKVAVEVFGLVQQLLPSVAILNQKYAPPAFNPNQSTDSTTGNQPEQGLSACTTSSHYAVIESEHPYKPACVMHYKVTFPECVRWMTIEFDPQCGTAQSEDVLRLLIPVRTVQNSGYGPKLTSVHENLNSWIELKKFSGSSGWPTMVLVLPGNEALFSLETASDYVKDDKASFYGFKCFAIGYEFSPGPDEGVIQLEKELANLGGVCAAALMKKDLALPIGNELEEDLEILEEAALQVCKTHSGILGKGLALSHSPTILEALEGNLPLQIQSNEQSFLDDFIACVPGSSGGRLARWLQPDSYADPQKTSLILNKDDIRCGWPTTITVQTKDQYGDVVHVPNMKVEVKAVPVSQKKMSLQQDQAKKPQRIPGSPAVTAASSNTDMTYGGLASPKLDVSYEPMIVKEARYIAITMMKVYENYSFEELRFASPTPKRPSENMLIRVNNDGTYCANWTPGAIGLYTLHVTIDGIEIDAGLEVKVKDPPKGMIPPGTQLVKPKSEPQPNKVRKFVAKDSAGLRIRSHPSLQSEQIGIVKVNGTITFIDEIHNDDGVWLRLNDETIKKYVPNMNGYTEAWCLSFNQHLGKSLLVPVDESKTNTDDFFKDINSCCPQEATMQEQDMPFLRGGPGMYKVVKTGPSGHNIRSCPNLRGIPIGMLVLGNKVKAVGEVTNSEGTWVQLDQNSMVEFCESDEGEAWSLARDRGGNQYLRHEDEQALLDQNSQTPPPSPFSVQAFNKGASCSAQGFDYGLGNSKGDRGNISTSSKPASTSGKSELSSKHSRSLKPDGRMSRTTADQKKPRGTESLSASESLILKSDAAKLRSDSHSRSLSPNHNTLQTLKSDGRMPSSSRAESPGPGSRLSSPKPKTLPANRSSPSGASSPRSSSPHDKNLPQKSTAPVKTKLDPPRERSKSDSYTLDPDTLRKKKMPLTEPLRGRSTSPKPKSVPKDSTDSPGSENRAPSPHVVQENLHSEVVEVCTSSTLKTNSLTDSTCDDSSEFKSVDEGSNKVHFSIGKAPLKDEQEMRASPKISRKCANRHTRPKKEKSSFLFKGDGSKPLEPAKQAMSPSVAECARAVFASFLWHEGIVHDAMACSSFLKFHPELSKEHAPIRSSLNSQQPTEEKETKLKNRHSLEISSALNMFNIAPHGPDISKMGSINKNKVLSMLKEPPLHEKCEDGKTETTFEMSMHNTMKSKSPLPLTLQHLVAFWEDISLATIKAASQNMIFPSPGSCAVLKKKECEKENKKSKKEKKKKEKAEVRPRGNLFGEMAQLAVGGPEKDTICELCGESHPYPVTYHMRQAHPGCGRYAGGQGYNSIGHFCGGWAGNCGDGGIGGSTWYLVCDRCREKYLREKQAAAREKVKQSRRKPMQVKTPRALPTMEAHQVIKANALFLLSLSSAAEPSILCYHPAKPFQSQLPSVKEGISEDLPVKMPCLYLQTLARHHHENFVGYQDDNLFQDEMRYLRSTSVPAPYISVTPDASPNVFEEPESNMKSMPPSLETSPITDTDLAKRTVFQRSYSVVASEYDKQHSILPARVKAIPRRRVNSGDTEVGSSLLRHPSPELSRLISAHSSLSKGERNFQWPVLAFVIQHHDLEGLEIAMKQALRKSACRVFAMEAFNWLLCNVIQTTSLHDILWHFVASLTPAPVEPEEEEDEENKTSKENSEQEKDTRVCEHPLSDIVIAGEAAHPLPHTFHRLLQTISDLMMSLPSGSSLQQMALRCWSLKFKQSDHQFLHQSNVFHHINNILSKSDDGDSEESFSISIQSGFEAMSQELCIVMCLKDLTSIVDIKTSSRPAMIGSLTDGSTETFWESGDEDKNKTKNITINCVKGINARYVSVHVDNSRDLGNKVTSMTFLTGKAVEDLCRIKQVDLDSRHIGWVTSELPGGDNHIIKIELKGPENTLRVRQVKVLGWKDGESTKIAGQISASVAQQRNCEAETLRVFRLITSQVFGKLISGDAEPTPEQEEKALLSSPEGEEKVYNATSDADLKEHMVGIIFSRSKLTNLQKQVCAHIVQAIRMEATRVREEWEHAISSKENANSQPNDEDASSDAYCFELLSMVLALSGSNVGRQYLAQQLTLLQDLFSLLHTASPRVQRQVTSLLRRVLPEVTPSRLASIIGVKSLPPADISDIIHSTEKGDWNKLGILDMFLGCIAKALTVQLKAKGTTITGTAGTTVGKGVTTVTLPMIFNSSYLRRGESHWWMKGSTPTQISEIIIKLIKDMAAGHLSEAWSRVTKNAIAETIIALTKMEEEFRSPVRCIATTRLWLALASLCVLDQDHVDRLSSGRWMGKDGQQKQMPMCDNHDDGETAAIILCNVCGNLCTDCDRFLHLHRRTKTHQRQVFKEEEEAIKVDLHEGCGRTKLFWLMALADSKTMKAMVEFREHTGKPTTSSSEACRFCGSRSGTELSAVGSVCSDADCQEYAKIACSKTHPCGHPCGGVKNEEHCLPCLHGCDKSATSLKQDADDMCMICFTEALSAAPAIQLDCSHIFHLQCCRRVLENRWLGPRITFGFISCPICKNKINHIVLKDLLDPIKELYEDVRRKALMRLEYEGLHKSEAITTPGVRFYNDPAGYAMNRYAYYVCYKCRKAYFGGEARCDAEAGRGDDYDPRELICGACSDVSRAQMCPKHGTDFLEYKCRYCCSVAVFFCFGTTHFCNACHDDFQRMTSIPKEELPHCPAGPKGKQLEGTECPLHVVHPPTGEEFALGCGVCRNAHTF
UniProt Q9UJ68: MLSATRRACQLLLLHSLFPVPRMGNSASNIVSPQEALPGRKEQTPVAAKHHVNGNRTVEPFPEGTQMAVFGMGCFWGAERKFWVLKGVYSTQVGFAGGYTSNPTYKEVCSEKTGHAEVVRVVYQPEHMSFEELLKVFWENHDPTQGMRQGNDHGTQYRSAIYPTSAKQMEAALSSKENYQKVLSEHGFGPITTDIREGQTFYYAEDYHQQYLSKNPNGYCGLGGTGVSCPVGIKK
UniProt Q9Y217: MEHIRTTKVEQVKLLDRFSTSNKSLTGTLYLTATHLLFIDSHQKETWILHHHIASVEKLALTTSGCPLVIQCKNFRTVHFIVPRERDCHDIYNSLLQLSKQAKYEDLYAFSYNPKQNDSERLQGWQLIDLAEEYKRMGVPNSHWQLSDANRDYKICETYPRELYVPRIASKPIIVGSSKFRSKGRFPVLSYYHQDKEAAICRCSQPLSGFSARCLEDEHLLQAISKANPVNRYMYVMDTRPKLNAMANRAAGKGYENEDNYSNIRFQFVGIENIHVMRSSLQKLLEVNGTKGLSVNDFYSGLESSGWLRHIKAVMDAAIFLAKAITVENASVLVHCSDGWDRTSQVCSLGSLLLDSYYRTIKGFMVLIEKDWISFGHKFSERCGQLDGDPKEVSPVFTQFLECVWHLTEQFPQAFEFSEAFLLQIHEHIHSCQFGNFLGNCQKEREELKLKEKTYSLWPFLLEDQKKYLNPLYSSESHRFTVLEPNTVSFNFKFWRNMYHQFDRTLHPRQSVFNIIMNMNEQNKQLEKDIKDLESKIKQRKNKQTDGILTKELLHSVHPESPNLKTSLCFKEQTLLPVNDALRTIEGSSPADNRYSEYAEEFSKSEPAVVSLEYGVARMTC
UniProt Q9NVV4: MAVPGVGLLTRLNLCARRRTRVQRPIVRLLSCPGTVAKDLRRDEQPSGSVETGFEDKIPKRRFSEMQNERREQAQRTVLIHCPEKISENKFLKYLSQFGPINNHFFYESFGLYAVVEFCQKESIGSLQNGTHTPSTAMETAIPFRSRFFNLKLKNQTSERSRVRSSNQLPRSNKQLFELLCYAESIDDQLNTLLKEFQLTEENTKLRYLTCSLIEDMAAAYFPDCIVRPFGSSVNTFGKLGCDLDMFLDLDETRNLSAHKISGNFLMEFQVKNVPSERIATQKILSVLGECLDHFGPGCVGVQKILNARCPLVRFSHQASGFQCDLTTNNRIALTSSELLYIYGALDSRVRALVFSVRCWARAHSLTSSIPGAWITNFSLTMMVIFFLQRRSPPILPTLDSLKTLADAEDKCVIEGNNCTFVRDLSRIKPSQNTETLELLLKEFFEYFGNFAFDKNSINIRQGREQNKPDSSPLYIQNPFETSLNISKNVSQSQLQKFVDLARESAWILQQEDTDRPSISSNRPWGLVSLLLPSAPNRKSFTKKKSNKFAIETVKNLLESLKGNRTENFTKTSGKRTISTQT
UniProt P60660, whole entry, looked up: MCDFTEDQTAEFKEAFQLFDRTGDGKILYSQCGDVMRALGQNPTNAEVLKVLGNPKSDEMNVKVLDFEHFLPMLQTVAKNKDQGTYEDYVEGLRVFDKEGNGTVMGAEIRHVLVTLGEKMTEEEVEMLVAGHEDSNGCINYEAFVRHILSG
UniProt P24844: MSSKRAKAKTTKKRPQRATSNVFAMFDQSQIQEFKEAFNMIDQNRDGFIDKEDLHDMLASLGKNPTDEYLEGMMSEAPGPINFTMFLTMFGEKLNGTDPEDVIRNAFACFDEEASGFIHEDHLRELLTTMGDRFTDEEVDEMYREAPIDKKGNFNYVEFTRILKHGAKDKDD

Target	probe-labelled cysteine peptide fold change
MYCBP2_O75592_4393_THPCGHPCGGVK (UniProt O75592)	-0.00693
MSRA_Q9UJ68_74_TVEPFPEGTQMAVFGMGCFWGAER (UniProt Q9UJ68)	0.0191
MTREX_P42285_399_KDCEAYALQMTK (UniProt P42285)	-0.127
MTMR6_Q9Y217_156_ICETYPR (UniProt Q9Y217)	-0.0558
MSH6_P52701_687_SELALSALGGCVFYLK (UniProt P52701)	0.05
MRPS18A_Q9NVS2_186_DNVCYSR (UniProt Q9NVS2)	-0.0735
MYH9_P35579_917_QELEEICHDLEAR (UniProt P35579)	0.0572
MTPAP_Q9NVV4_242_LGCDLDMFLDLDETR (UniProt Q9NVV4)	0.0471
MTOR_P42345_1498_CLEALGEWGQLHQQCCEK (UniProt P42345)	-0.228
MYH9_P35579_1379_KMEDSVGCLETAEEVKR (UniProt P35579)	0.0672
MTHFD1_P11586_143_GDLNDCFIPCTPK (UniProt P11586)	-0.047
MYL6_P60660-2_138_MTEEEVEMLVAGHEDSNGCINYEELVR (UniProt P60660)	0.0621
MRPS30_Q9NP92_316_QNCADQIEVVFR (UniProt Q9NP92)	0.0297
MSL1_Q68DK7_125_QAGIGGEPAAAGAGCSPR (UniProt Q68DK7)	-0.205
MTM1_Q13496_242_CSQPLVGMSGK (UniProt Q13496)	0.0934
MTMR9_Q96QG7_285_LVEACNDQTHNMDR (UniProt Q96QG7)	0.146
MTHFD1L_Q6UB35_778+779_EYTEENIQLVADGCCNLQK (UniProt Q6UB35)	0.141
MTHFR_P42898_452_VTCLPWNDEPLAAETSLLK (UniProt P42898)	0.00805
MTMR6_Q9Y217_88_DCHDIYNSLLQLSK (UniProt Q9Y217)	0.0931

same assay, conditions: 50 µM; THP-1; incubation time: 4 h

Target	probe-labelled cysteine peptide fold change
MTREX_P42285_399_DCEAYALQMTK (UniProt P42285)	0.309
MYCBP2_O75592_222_FSHPSLCLR (UniProt O75592)	0.147
MYL9_P24844_109_NAFACFDEEASGFIHEDHLR (UniProt P24844)	0.169
MYCBP2_O75592_3786_NITINCVK (UniProt O75592)	-0.362
MSH6_P52701_783_QWLCAPLCNHYAINDRLDAIEDLMVVPDK (UniProt P52701)	-0.389
MVD_P53602_12_PLAAVTCTAPVNIAVIK (UniProt P53602)	-0.161
MTRR_Q9UBK8_64_AIAEEICEQAVVHGFSADLHCISESDKYDLK (UniProt Q9UBK8)	-0.379
MYCBP2_O75592_1198_SHAALHILGCLDTLAAMQDLK (UniProt O75592)	0.000495
MVP_Q14764_59_HYCTVANPVSR (UniProt Q14764)	0.0233
MTFR2_Q6P444_50_MLPLEPCR (UniProt Q6P444)	-0.0716
MYBBP1A_Q9BQG0_363_FAPEMDDYVGTFLEGCQDDPER (UniProt Q9BQG0)	0.257
MTHFD1L_Q6UB35_828_AGAFDAVPCYHWSVGGK (UniProt Q6UB35)	-0.0934
MTM1_Q13496_242_CSQPLVGMSGKR (UniProt Q13496)	-0.623
MUL1_Q969V5_62_CVPYAVIEGAVR (UniProt Q969V5)	-0.433
MSH2_P43246_199_ECVLPGGETAGDMGK (UniProt P43246)	0.142
MSL3_Q8N5Y2_358_HSANCDR (UniProt Q8N5Y2)	-0.184
MYCBP2_O75592_4393_THPCGHPCGGVK (UniProt O75592)	-0.0775
MSRA_Q9UJ68_74_TVEPFPEGTQMAVFGMGCFWGAER (UniProt Q9UJ68)	0.487

Target	probe-labelled cysteine peptide fold change
MTREX_P42285_399_KDCEAYALQMTK (UniProt P42285)	0.145
MTMR6_Q9Y217_156_ICETYPR (UniProt Q9Y217)	0.0889
MSH6_P52701_687_SELALSALGGCVFYLK (UniProt P52701)	0.296
MRPS18A_Q9NVS2_186_DNVCYSR (UniProt Q9NVS2)	-0.099
MYH9_P35579_917_QELEEICHDLEAR (UniProt P35579)	0.414
MTPAP_Q9NVV4_242_LGCDLDMFLDLDETR (UniProt Q9NVV4)	0.0502
MTOR_P42345_1498_CLEALGEWGQLHQQCCEK (UniProt P42345)	-0.264
MYH9_P35579_1379_KMEDSVGCLETAEEVKR (UniProt P35579)	-0.504
MTHFD1_P11586_143_GDLNDCFIPCTPK (UniProt P11586)	-0.0853
MYL6_P60660-2_138_MTEEEVEMLVAGHEDSNGCINYEELVR (UniProt P60660)	0.0451
MRPS30_Q9NP92_316_QNCADQIEVVFR (UniProt Q9NP92)	0.0262
MSL1_Q68DK7_125_QAGIGGEPAAAGAGCSPR (UniProt Q68DK7)	0.114
MTM1_Q13496_242_CSQPLVGMSGK (UniProt Q13496)	0.0327
MTMR9_Q96QG7_285_LVEACNDQTHNMDR (UniProt Q96QG7)	0.0601
MTHFD1L_Q6UB35_778+779_EYTEENIQLVADGCCNLQK (UniProt Q6UB35)	-0.18
MTHFR_P42898_452_VTCLPWNDEPLAAETSLLK (UniProt P42898)	0.234
MTMR6_Q9Y217_88_DCHDIYNSLLQLSK (UniProt Q9Y217)	-0.172
